Experimental data published in PMC12670160, “A drug-repurposing screen of FDA- and EMA-approved drugs identifies two NF-κB inhibitors active against eumycetoma” (Journal of Antimicrobial Chemotherapy, 2025).
Where a name gives a salt, the structure may show the parent alone. The whole screen tested about 5,300 compounds, of which about 130 (2.5%) showed an effect of 50% or more. The list shows a part of the results. Peptide text beside a SMILES is read from it. * marks the point of attachment. PhAc = O=C(Cc1ccccc1)*

System: M. mycetomatis strain mm55
Details: primary screen, metabolic activity vs growth control; 96 h, 2 µM; inhibitor

Compound	% viability [%]
O=C(/C=C/c1cccnc1)NCCCCC1CCN(C(=O)c2ccccc2)CC1 [ONC0003480, fk866]	50.58
NCCc1ccc(O)c(O)c1 [ONC0000660, dopamine hydrochloride]	86.19
CC(ONC(=O)c1cc(C(F)(F)F)cc(C(F)(F)F)c1)C(=O)Nc1ccc(Cl)cc1 (centres unmarked) [ONC0003028, ccg1423]	136
N#CC1(c2ccc(NC(=O)c3cccnc3NCc3ccncc3)cc2)CCCC1 [ONC0005002, apatinib mesylate]	98.91
OC[C@@H](O)CN1CCN(c2ccccc2)CC1 [ONC0004722, levodropropizine]	109.8
CCCCCC(O)CCCC(=O)O (centres unmarked) [ONC0003475, 5hydroxydecanoate sodium salt]	72.97
COc1ccc(CCO[C@@H]2CCCC[C@H]2N2CC[C@@H](O)C2)cc1OC [ONC0001796, vernakalant hydrochloride]	98.02
Cc1c(Nc2ncccc2C(=O)O)cccc1C(F)(F)F [ONC0005632, flunixin meglumine]	61.08
CC[C@H](c1ccc(O)cc1)[C@@H](CC)c1ccc(O)cc1 [ONC0003849, hexestrol]	49.29
CCCNC(=O)N1N=C(c2ccc(N)cc2)c2cc3c(cc2C1C)OCO3 (centres unmarked) [ONC0001574, sym2206]	95.05
Cc1cccc(Cc2c[nH]cn2)c1C [ONC0004761, detomidine hcl]	119.1
Cc1nc2ccc(Oc3ccc(F)cc3)cc2c(=O)n1C[C@H]1CCCN(C(C)C)C1 [ONC0001600, yil781]	73.3
COc1cc(N)c(Cl)cc1C(=O)OCCN1CCCCC1 [ONC0001656, ml10302]	90.28
C1=C2CCCN[C@H]2[C@@H]2C[C@H]1[C@H]1CCCCN1C2 [ONC0004687, aloperine]	97.24
N#CC(C#N)=Cc1ccc(O)c(O)c1 [ONC0001262, tyrphostinag18]	74.38
O=C(O)COc1cccc(CN(Cc2ccc(-n3cccn3)cc2)S(=O)(=O)c2cccnc2)c1 [ONC0000946, taprenepag]	73.21
CC(=O)OCC(=O)[C@@]1(O)CC[C@H]2[C@@H]3CCC4=CC(=O)C=C[C@]4(C)[C@H]3[C@@H](O)C[C@@]21C [ONC0000513, prednisolone acetate]	76.31
O=C1NC(c2cccc([N+](=O)[O-])c2)=CCN1c1ccccc1O [ONC0003023, icilin]	75.59
CN1CCN(C(=O)c2cc3cc(Cl)ccc3[nH]2)CC1 [ONC0004776, jnj7777120]	56.23
CCCN(CC1CC1)c1nc(C)nc(Nc2c(Cl)cc(Cl)cc2Cl)c1Cl [ONC0001865, nbi27914]	125.6
O=C1COc2nccc(-c3ccccc3F)c2CN1Cc1cc(C(F)(F)F)cc(C(F)(F)F)c1 [ONC0000001, gpbara]	79.71

Look-ups from the entries so far:
Value of COc1cc(N)c(Cl)cc1C(=O)OCCN1CCCCC1 [ONC0001656, ml10302] under % viability [%]: 90.28
Value of CCCNC(=O)N1N=C(c2ccc(N)cc2)c2cc3c(cc2C1C)OCO3 (centres unmarked) [ONC0001574, sym2206] under % viability [%]: 95.05
Value of N#CC(C#N)=Cc1ccc(O)c(O)c1 [ONC0001262, tyrphostinag18] under % viability [%]: 74.38

(next part)

Compound	% viability [%]
CNc1cc(OC)c(C(=O)N[C@@H]2CCN(Cc3ccccc3)[C@@H]2C)cc1Cl.CNc1cc(OC)c(C(=O)N[C@H]2CCN(Cc3ccccc3)[C@H]2C)cc1Cl [ONC0002725, nemonapride]	82.55
CCOC(=O)CNC(=O)[C@@H]1CCCN1C(=O)Cc1ccccc1 [ONC0001144, omberacetam] (PhAc-Pro-Gly-OEt)	45.25
O=C(Nc1ncc(SCCN2CCCC2)s1)[C@]1(c2ccc(S(=O)(=O)C3CC3)cc2)C[C@H]1C1CCCCC1 [ONC0005072, ly2608204]	79.77
O=C(O)CCCN1CCC(O[C@@H](c2ccc(Cl)cc2)c2ccccn2)CC1 [ONC0004530, bepotastine besilate]	67.02
Clc1ccc(C23CNCC2C3)cc1Cl (centres unmarked) [ONC0001901, amitifadine]	72.07
Cc1ccc(S(=O)(=O)OCC(=O)Nc2ccc(C(=O)O)c(O)c2)cc1 [ONC0000797, nsc 74859]	82.71
CCC(=O)OCC(=O)[C@@]1(OC(=O)CC)[C@@H](C)C[C@H]2[C@@H]3CCC4=CC(=O)C=C[C@]4(C)[C@@]3(F)[C@@H](O)C[C@@]21C [ONC0002864, betamethasone 1721dipropionate]	121.7
C/C(=N\c1ccccc1N)c1c(C)cc(=O)n(O)c1O [ONC0002644, sunb8155]	62.2
COc1ccc(Br)cc1S(=O)(=O)NC(=O)/C=C/c1ccccc1Cc1ccc2ccccc2c1 [ONC0000823, l798106]	88.75
CN(C(=O)CCCOc1ccc2[nH]c(=O)ccc2c1)C1CCCCC1 [ONC0001610, cilostamide]	82.91
NNC(=O)c1ccncc1 [ONC0002883, pasiniazid]	74.66
NC(C(=O)O)c1ccc(C(=O)O)c(C(=O)O)c1 (centres unmarked) [ONC0001672, 34dcpg]	91.52
O=C(NCCO)c1cc(C(=O)NCCO)cc(C(=O)NCCO)c1 [ONC0000127, lm22a4]	90.59
Nc1cc(C(F)(F)F)c(-c2nc(N3CCOCC3)nc(N3CCOCC3)n2)cn1 [ONC0001043, bimiralisib]	79.27
O=C(c1ccc(OCCCc2cnc[nH]2)cc1)C1CC1 [ONC0005077, ciproxifan maleate]	110.6
Nc1nonc1C(=NO)Nc1ccc(F)c(Cl)c1 [ONC0002386, ido5l]	106.2
COc1cc2c(NC3CCN(CC4CCCCC4)CC3)nc(N3CCCN(C(C)C)CC3)nc2cc1OCCCN1CCCCC1 [ONC0000924, unc 0631]	76.25
Cc1[nH]c(/C=C2\C(=O)Nc3cc(-c4ccccc4)ccc32)c(C)c1CCC(=O)O [ONC0001524, su16f]	83.89
COc1ccc(-c2ccc3cc(C(=O)O)ccc3c2)cc1C12CC3CC(CC(C3)C1)C2 [ONC0000403, adapalene]	53.89
CCCCCNCC(N)=O [ONC0003718, milacemide]	96.85
CCN1CCCC1CNC(=O)c1cc(S(N)(=O)=O)ccc1OC (centres unmarked) [ONC0000700, sulpiride s]	135.8

Compound	% viability [%]
Cc1cccc(N(C)C(=S)Oc2ccc3ccccc3c2)c1 [ONC0000551, tolnaftate]	107.4
N[C@@H](COP(=O)(O)O)C(=O)O [ONC0005313, dexfosfoserine hydrochloride]	116.8
C=CCNC1=C2C[C@@H](C)C[C@H](OC)[C@H](O)[C@@H](C)/C=C(\C)[C@H](OC(N)=O)[C@@H](OC)/C=C\C=C(/C)C(=O)NC(=CC1=O)C2=O [ONC0004647, 17aag tanespimycin]	80.32
COc1cc2c(cc1OC)CN(C(=O)[C@@H](NCc1ccncc1)C(C)(C)C)CC2 [ONC0002587, tcsox229]	68.75
CN1CCN(c2ccc3nc(-c4c(N)c5c(F)cccc5[nH]c4=O)[nH]c3c2)CC1 [ONC0004693, dovitinib tki258 chir258]	146
O=c1[nH]c(=O)n([C@H]2C[C@H](O)[C@@H](CO)O2)cc1I [ONC0005008, idoxuridin]	89.88
Cc1cnc(C(=O)N[C@H]2CCCCC/C=C\[C@@H]3C[C@@]3(C(=O)NS(=O)(=O)C3CC3)NC(=O)[C@@H]3C[C@@H](Oc4nc5ccccc5c5ccccc45)CN3C2=O)cn1 [ONC0002058, paritaprevir]	66.53
Nc1nccc2c1ncn2[C@@H]1C=C(CO)[C@@H](O)[C@H]1O [ONC0004546, 3deazaneplanocin a dznep hcl]	65.5
CCCCCCCNS(=O)(=O)c1cccc2c(Cl)cccc12 [ONC0003431, sc10]	68.77
CC1(N2CCC(n3c([C@@H]4CCCNC4)nc4ccccc43)CC2)CCCCCCC1 [ONC0001743, mcoppb]	92.05
O=C(O)c1cccnc1 [ONC0000485, niacin]	75.05
Cc1cc(C)nc(NS(=O)(=O)c2ccc(NC(=S)NC(=O)COc3ccc(Br)cc3Cl)cc2)n1 [ONC0001646, zcl278]	86.79
Cn1cc(C2=C(c3cn(C4CCN(Cc5ccccn5)CC4)c4ccccc34)C(=O)NC2=O)c2ccccc21 [ONC0004929, enzastaurin ly317615]	82.68
NC(=O)c1cc(N2CC2)c([N+](=O)[O-])cc1[N+](=O)[O-] [ONC0005396, tretazicar]	94.69
CCOc1ccc(Cc2nccc3cc(OCC)c(OCC)cc23)cc1OCC [ONC0003191, ethaverine hydrochloride]	135.5
O=C(Nc1cccnc1)N1CCC(Cc2cccc(Oc3ccc(C(F)(F)F)cn3)c2)CC1 [ONC0005062, pf3845]	97.33
O=C(Nc1ccc([N+](=O)[O-])cc1Cl)c1cc(Cl)ccc1O [niclosamide]	70.84
Cc1cccc(-c2nn3c(c2-c2ccnc4ccc(C(N)=O)cc24)CCC3)n1 [ONC0004982, galunisertib ly2157299]	82.62
C#C[C@]1(O)CC[C@H]2[C@@H]3CCC4=Cc5oncc5C[C@]4(C)[C@H]3CC[C@@]21C [ONC0000341, danazol]	67.08
O=C(c1cc(C2CC2)on1)N(C1CCCCC1)C1CCCCC1 [ONC0000255, cym5541]	74.57
